According to the supplement of paper PMC10849652:
The other results are listed elsewhere or left out.

By UniProt entry, the sequences of proteins in these tests, tags left out. Where a name states a change or a piece, a line headed by the entry shows the natural chain unless it says otherwise.
UniProt Q9NVI7: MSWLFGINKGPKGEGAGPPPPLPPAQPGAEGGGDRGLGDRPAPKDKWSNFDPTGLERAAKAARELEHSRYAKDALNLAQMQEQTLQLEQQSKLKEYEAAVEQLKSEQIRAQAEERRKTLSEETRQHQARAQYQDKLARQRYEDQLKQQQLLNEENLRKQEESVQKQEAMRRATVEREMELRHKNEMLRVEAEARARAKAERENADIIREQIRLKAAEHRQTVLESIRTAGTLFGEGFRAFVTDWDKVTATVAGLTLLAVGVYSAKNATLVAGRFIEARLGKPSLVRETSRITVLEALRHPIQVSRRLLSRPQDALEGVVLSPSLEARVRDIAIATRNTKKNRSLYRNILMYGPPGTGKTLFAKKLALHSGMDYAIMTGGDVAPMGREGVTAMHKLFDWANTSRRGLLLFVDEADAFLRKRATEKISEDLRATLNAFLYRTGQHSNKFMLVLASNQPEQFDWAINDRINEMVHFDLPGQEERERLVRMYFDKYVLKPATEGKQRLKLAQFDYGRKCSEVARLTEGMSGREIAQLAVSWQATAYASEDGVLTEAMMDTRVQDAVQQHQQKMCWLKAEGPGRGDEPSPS
UniProt P04424, whole entry, looked up: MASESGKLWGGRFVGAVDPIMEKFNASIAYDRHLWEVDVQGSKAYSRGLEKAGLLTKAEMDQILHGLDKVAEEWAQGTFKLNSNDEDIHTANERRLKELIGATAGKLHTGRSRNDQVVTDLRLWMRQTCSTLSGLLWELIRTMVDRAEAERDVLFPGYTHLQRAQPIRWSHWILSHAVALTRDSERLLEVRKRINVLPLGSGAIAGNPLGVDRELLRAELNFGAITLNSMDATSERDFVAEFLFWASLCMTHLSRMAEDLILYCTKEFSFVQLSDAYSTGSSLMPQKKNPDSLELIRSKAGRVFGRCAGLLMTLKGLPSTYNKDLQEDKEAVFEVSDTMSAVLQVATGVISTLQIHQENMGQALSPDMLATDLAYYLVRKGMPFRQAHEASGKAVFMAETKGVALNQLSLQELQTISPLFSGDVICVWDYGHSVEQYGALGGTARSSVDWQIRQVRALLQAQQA
UniProt Q6DD88: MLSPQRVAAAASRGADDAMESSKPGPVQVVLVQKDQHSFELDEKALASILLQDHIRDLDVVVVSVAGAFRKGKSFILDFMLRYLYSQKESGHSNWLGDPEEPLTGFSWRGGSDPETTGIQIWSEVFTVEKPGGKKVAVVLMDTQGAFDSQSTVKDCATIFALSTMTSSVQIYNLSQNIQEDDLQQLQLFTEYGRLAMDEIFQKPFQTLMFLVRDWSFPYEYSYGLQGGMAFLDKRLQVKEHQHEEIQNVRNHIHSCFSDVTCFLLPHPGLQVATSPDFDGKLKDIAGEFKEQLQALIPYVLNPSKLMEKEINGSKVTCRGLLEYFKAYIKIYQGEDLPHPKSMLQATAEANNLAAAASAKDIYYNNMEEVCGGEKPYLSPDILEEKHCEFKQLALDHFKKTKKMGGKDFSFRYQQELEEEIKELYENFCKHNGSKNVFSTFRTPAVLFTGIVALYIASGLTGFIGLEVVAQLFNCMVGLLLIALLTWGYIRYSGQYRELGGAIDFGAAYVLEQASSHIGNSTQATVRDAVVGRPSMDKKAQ
UniProt Q9BZE9, whole entry, looked up: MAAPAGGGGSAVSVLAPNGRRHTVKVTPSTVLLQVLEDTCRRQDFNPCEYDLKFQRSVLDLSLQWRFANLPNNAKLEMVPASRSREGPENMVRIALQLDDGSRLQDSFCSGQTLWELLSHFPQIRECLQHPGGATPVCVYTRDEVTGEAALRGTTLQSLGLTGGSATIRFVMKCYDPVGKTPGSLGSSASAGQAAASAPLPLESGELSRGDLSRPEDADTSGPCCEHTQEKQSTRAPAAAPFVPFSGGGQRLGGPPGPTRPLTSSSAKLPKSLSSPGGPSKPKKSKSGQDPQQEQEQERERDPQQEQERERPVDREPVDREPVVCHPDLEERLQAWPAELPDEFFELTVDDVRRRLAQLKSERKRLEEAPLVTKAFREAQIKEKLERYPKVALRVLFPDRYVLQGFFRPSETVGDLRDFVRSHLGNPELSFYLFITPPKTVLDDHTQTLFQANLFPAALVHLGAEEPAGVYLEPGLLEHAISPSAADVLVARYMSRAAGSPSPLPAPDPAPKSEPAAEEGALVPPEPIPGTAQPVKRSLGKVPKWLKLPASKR
UniProt Q676U5: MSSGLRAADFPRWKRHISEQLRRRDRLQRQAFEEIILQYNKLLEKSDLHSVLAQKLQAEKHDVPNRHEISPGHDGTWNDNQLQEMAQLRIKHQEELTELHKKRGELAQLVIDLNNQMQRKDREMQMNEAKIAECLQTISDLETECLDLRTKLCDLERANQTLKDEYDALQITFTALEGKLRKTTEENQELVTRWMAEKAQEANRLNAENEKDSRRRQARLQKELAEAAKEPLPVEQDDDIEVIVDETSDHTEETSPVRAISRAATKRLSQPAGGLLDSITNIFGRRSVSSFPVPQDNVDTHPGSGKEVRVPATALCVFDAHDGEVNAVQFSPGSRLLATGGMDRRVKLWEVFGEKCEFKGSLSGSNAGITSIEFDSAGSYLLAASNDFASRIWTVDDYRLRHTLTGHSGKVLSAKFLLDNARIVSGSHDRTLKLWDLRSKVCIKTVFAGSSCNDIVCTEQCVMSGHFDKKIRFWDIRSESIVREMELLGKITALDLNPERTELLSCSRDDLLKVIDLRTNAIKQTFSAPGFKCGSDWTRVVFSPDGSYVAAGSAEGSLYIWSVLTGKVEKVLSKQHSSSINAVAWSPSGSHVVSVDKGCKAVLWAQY
UniProt O95671: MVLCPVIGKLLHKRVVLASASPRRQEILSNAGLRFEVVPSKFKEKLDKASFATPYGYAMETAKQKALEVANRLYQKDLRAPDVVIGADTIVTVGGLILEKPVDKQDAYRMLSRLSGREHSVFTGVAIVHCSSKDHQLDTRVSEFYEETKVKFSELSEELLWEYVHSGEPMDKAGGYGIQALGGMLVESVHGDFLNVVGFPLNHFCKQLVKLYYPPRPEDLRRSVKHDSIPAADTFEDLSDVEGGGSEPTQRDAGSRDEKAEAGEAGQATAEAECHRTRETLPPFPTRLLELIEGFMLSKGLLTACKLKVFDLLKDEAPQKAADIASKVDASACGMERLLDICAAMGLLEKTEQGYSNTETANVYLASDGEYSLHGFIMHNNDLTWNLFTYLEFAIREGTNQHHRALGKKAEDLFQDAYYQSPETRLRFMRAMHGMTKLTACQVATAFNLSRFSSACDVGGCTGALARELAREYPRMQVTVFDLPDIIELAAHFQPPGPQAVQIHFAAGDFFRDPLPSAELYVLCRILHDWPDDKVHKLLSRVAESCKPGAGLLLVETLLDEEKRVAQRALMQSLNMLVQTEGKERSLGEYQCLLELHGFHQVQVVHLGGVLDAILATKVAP
UniProt P61421, whole entry, looked up: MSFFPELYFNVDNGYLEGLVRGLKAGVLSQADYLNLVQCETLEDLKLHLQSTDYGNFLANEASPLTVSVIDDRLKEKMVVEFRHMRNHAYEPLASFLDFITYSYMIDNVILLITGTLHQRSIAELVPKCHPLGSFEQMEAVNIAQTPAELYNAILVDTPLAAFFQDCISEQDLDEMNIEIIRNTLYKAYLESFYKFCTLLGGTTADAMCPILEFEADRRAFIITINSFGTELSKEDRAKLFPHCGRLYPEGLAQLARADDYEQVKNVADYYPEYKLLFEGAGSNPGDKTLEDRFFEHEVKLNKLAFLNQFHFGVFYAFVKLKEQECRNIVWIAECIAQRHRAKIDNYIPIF
UniProt Q93050, whole entry, looked up: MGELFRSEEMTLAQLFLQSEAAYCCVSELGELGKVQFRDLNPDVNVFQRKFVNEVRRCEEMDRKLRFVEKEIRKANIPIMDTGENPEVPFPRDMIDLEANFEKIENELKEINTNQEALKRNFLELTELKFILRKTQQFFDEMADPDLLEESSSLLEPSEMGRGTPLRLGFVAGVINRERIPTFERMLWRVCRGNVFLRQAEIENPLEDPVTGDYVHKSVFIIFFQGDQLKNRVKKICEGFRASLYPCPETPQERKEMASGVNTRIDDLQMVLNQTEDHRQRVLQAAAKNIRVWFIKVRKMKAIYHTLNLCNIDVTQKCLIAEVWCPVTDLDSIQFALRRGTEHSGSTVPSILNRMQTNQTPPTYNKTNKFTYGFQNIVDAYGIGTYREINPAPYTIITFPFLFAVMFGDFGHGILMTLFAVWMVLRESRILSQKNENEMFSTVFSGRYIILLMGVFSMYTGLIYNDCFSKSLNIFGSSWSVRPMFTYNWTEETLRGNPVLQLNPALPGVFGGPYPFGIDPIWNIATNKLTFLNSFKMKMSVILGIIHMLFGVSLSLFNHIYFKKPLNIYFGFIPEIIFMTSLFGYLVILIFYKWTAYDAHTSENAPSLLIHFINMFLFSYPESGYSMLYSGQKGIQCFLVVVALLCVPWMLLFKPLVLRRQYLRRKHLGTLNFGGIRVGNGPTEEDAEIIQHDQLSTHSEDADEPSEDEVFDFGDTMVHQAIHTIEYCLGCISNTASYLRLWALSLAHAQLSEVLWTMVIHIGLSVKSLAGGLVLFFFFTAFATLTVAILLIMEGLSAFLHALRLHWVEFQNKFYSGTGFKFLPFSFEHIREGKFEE
UniProt Q9UI12, whole entry, looked up: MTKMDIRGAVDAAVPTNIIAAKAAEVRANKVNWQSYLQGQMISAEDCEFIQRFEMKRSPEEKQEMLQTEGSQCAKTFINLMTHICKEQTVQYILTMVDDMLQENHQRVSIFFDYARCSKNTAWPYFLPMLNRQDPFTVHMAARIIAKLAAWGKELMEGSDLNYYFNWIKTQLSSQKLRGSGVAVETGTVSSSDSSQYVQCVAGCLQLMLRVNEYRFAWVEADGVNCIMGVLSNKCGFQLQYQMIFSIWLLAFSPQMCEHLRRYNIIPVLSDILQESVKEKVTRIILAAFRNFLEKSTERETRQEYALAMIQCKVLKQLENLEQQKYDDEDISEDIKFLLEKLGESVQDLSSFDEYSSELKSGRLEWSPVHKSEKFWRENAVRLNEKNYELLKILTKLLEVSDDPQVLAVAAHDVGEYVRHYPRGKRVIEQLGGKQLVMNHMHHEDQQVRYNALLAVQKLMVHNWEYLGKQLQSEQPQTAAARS
UniProt Q7L266: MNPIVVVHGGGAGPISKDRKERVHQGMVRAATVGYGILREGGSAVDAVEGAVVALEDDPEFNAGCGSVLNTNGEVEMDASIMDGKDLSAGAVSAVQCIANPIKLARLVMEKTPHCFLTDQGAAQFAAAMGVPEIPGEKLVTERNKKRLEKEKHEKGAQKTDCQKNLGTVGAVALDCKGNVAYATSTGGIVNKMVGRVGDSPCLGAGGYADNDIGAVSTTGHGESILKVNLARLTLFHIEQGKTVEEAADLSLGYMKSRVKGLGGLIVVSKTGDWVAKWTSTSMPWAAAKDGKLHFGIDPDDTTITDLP
UniProt Q8N9N2: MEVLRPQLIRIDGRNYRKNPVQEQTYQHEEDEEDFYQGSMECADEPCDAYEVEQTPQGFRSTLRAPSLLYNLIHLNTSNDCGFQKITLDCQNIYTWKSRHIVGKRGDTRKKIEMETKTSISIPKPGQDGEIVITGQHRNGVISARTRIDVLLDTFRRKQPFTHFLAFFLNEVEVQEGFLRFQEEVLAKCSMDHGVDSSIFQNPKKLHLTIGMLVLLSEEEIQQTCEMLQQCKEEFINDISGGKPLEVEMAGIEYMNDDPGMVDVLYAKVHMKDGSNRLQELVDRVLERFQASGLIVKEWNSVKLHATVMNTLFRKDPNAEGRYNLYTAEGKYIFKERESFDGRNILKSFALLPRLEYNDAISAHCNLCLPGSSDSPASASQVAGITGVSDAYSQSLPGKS
UniProt Q96IX5: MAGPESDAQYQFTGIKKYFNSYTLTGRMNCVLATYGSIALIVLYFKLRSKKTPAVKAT
UniProt Q96A05, whole entry, looked up: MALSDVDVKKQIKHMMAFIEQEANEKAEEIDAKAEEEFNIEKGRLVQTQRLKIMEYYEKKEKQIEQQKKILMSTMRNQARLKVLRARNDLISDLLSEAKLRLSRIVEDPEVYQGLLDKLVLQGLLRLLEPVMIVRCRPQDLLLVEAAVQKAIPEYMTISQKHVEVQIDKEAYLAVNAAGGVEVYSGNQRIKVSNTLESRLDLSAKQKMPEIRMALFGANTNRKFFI

How the values were obtained:
Test in all cases: log2 fold change, soluble protein after heating vs DMSO (PISA); higher = thermal stabilisation; K562 lysate, 10 uM; active = over 0.2 and 3.5 SD of the protein, either way, in both replicates (recomputed)
lapatinib = compound: CS(=O)(=O)CCNCc1ccc(-c2ccc3ncnc(Nc4ccc(OCc5cccc(F)c5)c(Cl)c4)c3c2)o1 [lapatinib]
How it was run: (§1)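 Soluble protein was defined as the supernatant remaining after 21,000xg for 90 min, following pooling of heated aliquots and adjustment to 0.5% NP-40 at 4°C. Before that, crude K562 extract at 1 mg/mL protein in PBS pH 7.4 with 1 mM MgCl2 was treated with 10 μM compound for 30 min and heated for 3 min across 48°C-58°C. Quantification used TMTpro 16plex LC-MS/MS with channel sums equalised, and values are log-two fold changes in thermal stability relative to solvent controls from duplicates.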

pictilisib = compound: CS(=O)(=O)N1CCN(Cc2cc3nc(-c4cccc5[nH]ncc45)nc(N4CCOCC4)c3s2)CC1 [pictilisib]
How it was run: as §1

crizotinib = compound: C[C@@H](Oc1cc(-c2cnn(C3CCNCC3)c2)cnc1N)c1c(Cl)ccc(F)c1Cl [crizotinib]
How it was run: as §1

[1] = compound: C[C@H](C1=CC=C(C=C1)C(=O)NC2=C3C=CNC3=NC=C2)N
How it was run: as §1

duvelisib = compound: C[C@H](Nc1ncnc2nc[nH]c12)c1cc2cccc(Cl)c2c(=O)n1-c1ccccc1 [duvelisib]
How it was run: as §1

gandotinib = compound: Cc1cc(Nc2cc(CN3CCOCC3)c3nc(C)c(Cc4ccc(Cl)cc4F)n3n2)n[nH]1 [gandotinib]
How it was run: as §1

tozasertib = compound: Cc1cc(Nc2cc(N3CCN(C)CC3)nc(Sc3ccc(NC(=O)C4CC4)cc3)n2)n[nH]1 [tozasertib]
How it was run: as §1

doramapimod = compound: Cc1ccc(-n2nc(C(C)(C)C)cc2NC(=O)Nc2ccc(OCCN3CCOCC3)c3ccccc23)cc1 [doramapimod]
How it was run: as §1

bafetinib = compound: Cc1ccc(NC(=O)c2ccc(CN3CC[C@H](N(C)C)C3)c(C(F)(F)F)c2)cc1Nc1nccc(-c2cncnc2)n1 [bafetinib]
How it was run: as §1

[2] = compound: Cc1cccc(CC(=O)N2CCc3c2ccc(-c2cn(C)c4ncnc(N)c24)c3F)n1
How it was run: as §1

nilotinib = compound: Cc1cn(-c2cc(NC(=O)c3ccc(C)c(Nc4nccc(-c5cccnc5)n4)c3)cc(C(F)(F)F)c2)cn1 [nilotinib]
How it was run: as §1

[3] = compound: Cc1nc(Nc2n[nH]c3c2CN(C(=O)N[C@H](CN(C)C)c2ccccc2)C3(C)C)c2sccc2n1
How it was run: as §1

dasatinib = compound: Cc1nc(Nc2ncc(C(=O)Nc3c(C)cccc3Cl)s2)cc(N2CCN(CCO)CC2)n1 [dasatinib]
How it was run: as §1

[4] = compound: Cc1ncc(-c2ccnc(Nc3ccc(S(C)(=O)=O)cc3)n2)n1C(C)C
How it was run: as §1

[5] = compound: Cn1cc(-c2ccc3c(c2)CCN3C(=O)Cc2cccc(C(F)(F)F)c2)c2c(N)ncnc21
How it was run: as §1

quisinostat = compound: Cn1cc(CNCC2CCN(c3ncc(C(=O)NO)cn3)CC2)c2ccccc21 [quisinostat]
How it was run: as §1

tipifarnib = compound: Cn1cncc1[C@@](N)(c1ccc(Cl)cc1)c1ccc2c(c1)c(-c1cccc(Cl)c1)cc(=O)n2C [tipifarnib]
How it was run: as §1

[6] = compound: NC(=O)Nc1cc(-c2cccc(F)c2)sc1C(=O)N[C@H]1CCCNC1
How it was run: as §1

[7] = compound: NC(=O)c1cnc(N[C@@H]2CCCC[C@@H]2N)nc1Nc1cccc(-n2nccn2)c1
How it was run: as §1

[8] = compound: NC1(c2ccc(-c3nc4ccn5c(=O)[nH]nc5c4cc3-c3ccccc3)cc2)CCC1
How it was run: as §1

Measured: log2 fold change

ATAD3A (UniProt Q9NVI7)
inactive: lapatinib -0.016 | pictilisib -0.082 | crizotinib -0.049 | [1] 0.096 | duvelisib 0.037 | gandotinib -0.184 | tozasertib -0.088 | doramapimod 0.004 | bafetinib -0.142 | [2] -0.055 | nilotinib 0.018 | [3] 0.112 | dasatinib -0.008 | [4] 0.007 | [5] 0.011 | quisinostat -0.025 | tipifarnib -0.018 | [6] 0.088 | [7] -0.054 | [8] 0.003

ASL (UniProt P04424)
inactive: lapatinib -0.023 | pictilisib 0 | crizotinib 0.037 | [1] -0.003 | duvelisib 0.029 | gandotinib -0.016 | tozasertib -0.009 | doramapimod -0.023 | bafetinib -0.05 | [2] -0.009 | nilotinib 0.017 | [3] -0.014 | dasatinib -0.017 | [4] 0.01 | [5] -0.012 | quisinostat 0.017 | tipifarnib 0.016 | [6] 0 | [7] 0.021 | [8] -0.003

AURKAIP1 (UniProt Q9NWT8)
inactive: lapatinib -0.001 | pictilisib 0.051 | crizotinib 0.021 | [1] -0.017 | duvelisib 0.012 | gandotinib -0.03 | tozasertib 0.028 | doramapimod -0.039 | bafetinib -0.029 | [2] -0.04 | nilotinib -0.072 | [3] -0.019 | dasatinib 0 | [4] 0 | [5] -0.058 | quisinostat -0.02 | tipifarnib -0.041 | [6] 0.055 | [7] 0.042 | [8] -0.071

ATL3 (UniProt Q6DD88)
inactive: lapatinib -0.005 | pictilisib -0.017 | crizotinib -0.069 | [1] 0.006 | duvelisib -0.022 | gandotinib -0.113 | tozasertib 0 | doramapimod -0.011 | bafetinib 0 | [2] 0.023 | nilotinib 0.01 | [3] 0.003 | dasatinib -0.066 | [4] 0.002 | [5] -0.023 | quisinostat 0.031 | tipifarnib -0.037 | [6] 0.019 | [7] -0.014 | [8] -0.005

ASPSCR1 (UniProt Q9BZE9)
inactive: lapatinib -0.026 | pictilisib -0.025 | crizotinib 0.014 | [1] 0.008 | duvelisib 0.015 | gandotinib -0.014 | tozasertib 0.036 | doramapimod -0.003 | bafetinib 0.003 | [2] 0.035 | nilotinib 0.014 | [3] -0.03 | dasatinib -0.002 | [4] -0.007 | [5] 0.018 | quisinostat -0.019 | tipifarnib 0.004 | [6] -0.01 | [7] 0.025 | [8] 0.025

ATG16L1 (UniProt Q676U5)
inactive: lapatinib 0.002 | pictilisib -0.018 | crizotinib 0.078 | [1] 0.054 | duvelisib -0.013 | gandotinib -0.026 | tozasertib 0.023 | doramapimod -0.02 | bafetinib 0.001 | [2] -0.058 | nilotinib 0.003 | [3] -0.022 | dasatinib 0.021 | [4] 0.016 | [5] -0.013 | quisinostat 0.081 | tipifarnib 0.031 | [6] -0.01 | [7] -0.002 | [8] 0.02

ASMTL (UniProt O95671)
inactive: lapatinib 0.009 | pictilisib -0.018 | crizotinib 0 | [1] -0.006 | duvelisib 0.005 | gandotinib -0.02 | tozasertib -0.017 | doramapimod -0.005 | bafetinib -0.069 | [2] 0.099 | nilotinib -0.066 | [3] -0.012 | dasatinib 0.025 | [4] -0.071 | [5] -0.02 | quisinostat 0.006 | tipifarnib -0.079 | [6] 0.017 | [7] 0.011 | [8] -0.035

ATP6V0D1 (UniProt P61421)
inactive: lapatinib 0.047 | pictilisib 0.042 | crizotinib 0.036 | [1] 0.061 | duvelisib 0.031 | gandotinib -0.029 | tozasertib 0.042 | doramapimod 0.016 | bafetinib 0.043 | [2] 0.027 | nilotinib 0.05 | [3] -0.027 | dasatinib -0.016 | [4] 0.08 | [5] 0.017 | quisinostat 0.05 | tipifarnib 0.002 | [6] -0.033 | [7] -0.037 | [8] 0.011

ATP2A2 (UniProt P16615)
inactive: lapatinib -0.003 | pictilisib 0.004 | crizotinib -0.051 | [1] -0.071 | duvelisib -0.033 | gandotinib -0.042 | tozasertib 0.034 | doramapimod 0.036 | bafetinib -0.045 | [2] 0.104 | nilotinib -0.016 | [3] 0.029 | dasatinib -0.016 | [4] -0.015 | [5] -0.042 | quisinostat -0.002 | tipifarnib -0.011 | [6] -0.004 | [7] 0.007 | [8] -0.03

ATP6V0A1 isoform 3 (UniProt Q93050)
inactive: lapatinib -0.016 | pictilisib -0.008 | crizotinib 0.016 | [1] -0.058 | duvelisib 0.008 | gandotinib 0.04 | tozasertib 0.059 | doramapimod -0.03 | bafetinib 0.023 | [2] 0.032 | nilotinib 0.057 | [3] -0.014 | dasatinib -0.009 | [4] 0.023 | [5] 0.001 | quisinostat 0.036 | tipifarnib -0.03 | [6] -0.04 | [7] 0.019 | [8] 0.001

ATP6V1H (UniProt Q9UI12)
inactive: lapatinib -0.03 | pictilisib -0.036 | crizotinib -0.038 | [1] -0.043 | duvelisib 0.014 | gandotinib -0.017 | tozasertib 0.023 | doramapimod 0.035 | bafetinib 0.016 | [2] -0.007 | nilotinib -0.006 | [3] -0.006 | dasatinib -0.021 | [4] -0.002 | [5] 0.021 | quisinostat -0.05 | tipifarnib -0.003 | [6] 0.007 | [7] 0.021 | [8] 0.002

ASRGL1 (UniProt Q7L266)
inactive: lapatinib -0.002 | pictilisib 0.023 | crizotinib -0.002 | [1] -0.024 | duvelisib -0.014 | gandotinib 0.062 | tozasertib 0.026 | doramapimod 0.009 | bafetinib -0.08 | [2] 0.011 | nilotinib 0.044 | [3] -0.012 | dasatinib 0.03 | [4] 0 | [5] 0.021 | quisinostat -0.002 | tipifarnib 0.072 | [6] -0.023 | [7] -0.03 | [8] 0.004

ASCC1 isoform 2 (UniProt Q8N9N2)
inactive: lapatinib -0.003 | pictilisib -0.023 | crizotinib -0.054 | [1] -0.056 | duvelisib -0.013 | gandotinib -0.008 | tozasertib 0.014 | doramapimod 0.123 | bafetinib -0.068 | [2] 0.039 | nilotinib 0.003 | [3] 0.006 | dasatinib 0.015 | [4] -0.024 | [5] 0.008 | quisinostat -0.067 | tipifarnib 0.031 | [6] 0.058 | [7] 0.013 | [8] -0.038

ATP1A3 isoform 3 (UniProt P13637)
inactive: lapatinib -0.022 | pictilisib 0.002 | crizotinib -0.014 | [1] -0.007 | duvelisib 0.059 | gandotinib 0.004 | tozasertib -0.01 | doramapimod 0.017 | bafetinib 0.013 | [2] 0.062 | nilotinib 0.069 | [3] -0.041 | dasatinib -0.013 | [4] 0.017 | [5] 0.011 | quisinostat -0.046 | tipifarnib -0.006 | [6] -0.022 | [7] 0.011 | [8] -0.018

Taken from the entries so far (three entries):
ATP2A2 (UniProt P16615)
inactive: lapatinib -0.003 | pictilisib 0.004 | crizotinib -0.051 | [1] -0.071 | duvelisib -0.033 | gandotinib -0.042 | tozasertib 0.034 | doramapimod 0.036 | bafetinib -0.045 | [2] 0.104 | nilotinib -0.016 | [3] 0.029 | dasatinib -0.016 | [4] -0.015 | [5] -0.042 | quisinostat -0.002 | tipifarnib -0.011 | [6] -0.004 | [7] 0.007 | [8] -0.03

ATP6V0A1 isoform 3 (UniProt Q93050)
inactive: lapatinib -0.016 | pictilisib -0.008 | crizotinib 0.016 | [1] -0.058 | duvelisib 0.008 | gandotinib 0.04 | tozasertib 0.059 | doramapimod -0.03 | bafetinib 0.023 | [2] 0.032 | nilotinib 0.057 | [3] -0.014 | dasatinib -0.009 | [4] 0.023 | [5] 0.001 | quisinostat 0.036 | tipifarnib -0.03 | [6] -0.04 | [7] 0.019 | [8] 0.001

ATP6V1H (UniProt Q9UI12)
inactive: lapatinib -0.03 | pictilisib -0.036 | crizotinib -0.038 | [1] -0.043 | duvelisib 0.014 | gandotinib -0.017 | tozasertib 0.023 | doramapimod 0.035 | bafetinib 0.016 | [2] -0.007 | nilotinib -0.006 | [3] -0.006 | dasatinib -0.021 | [4] -0.002 | [5] 0.021 | quisinostat -0.05 | tipifarnib -0.003 | [6] 0.007 | [7] 0.021 | [8] 0.002

Next part

ATP5MD (UniProt Q96IX5)
inactive: lapatinib -0.011 | pictilisib 0.013 | crizotinib 0.089 | [1] -0.266 | duvelisib -0.034 | gandotinib 0.025 | tozasertib 0.034 | doramapimod -0.088 | bafetinib -0.014 | [2] 0.041 | nilotinib -0.016 | [3] 0.022 | dasatinib 0.192 | [4] 0.059 | [5] -0.029 | quisinostat 0.241 | tipifarnib 0.02 | [6] -0.068 | [7] -0.007 | [8] 0.046

ATP6V1E2 (UniProt Q96A05)
inactive: lapatinib -0.029 | pictilisib -0.018 | crizotinib 0.045 | [1] -0.093 | duvelisib 0.036 | gandotinib 0.086 | tozasertib -0.065 | doramapimod -0.012 | bafetinib -0.009 | [2] 0.066 | nilotinib 0.011 | [3] 0.003 | dasatinib -0.024 | [4] 0.004 | [5] -0.005 | quisinostat 0.013 | tipifarnib 0.009 | [6] -0.031 | [7] 0.006 | [8] -0.037
